Data: patent US7628996B2, “Sterile immunogenic non-tumorigenic tumor cell compositions and methods” (priority 2002, dated 2009)
At least one structure is not confirmed: it was looked up by name or label, or the drawing left a doubt.

Experiments:
Enterococcus faecalis = test: Short exposure of test microorganism to antibiotic; format: cell-based
Protocol: (§1) Appropriate test microorganisms were incubated with the antibiotic for varying periods of time and at 4° C. or 37° C. “Untreated” controls were incubated with HBSS. After completion of the treatment, the samples were assayed for bioburden by the membrane filtration method on Tryptic Soy agar containing 5% sheep blood (TSA-SB) and Sabouraud's dextrose medium (SAB).
Two members of the quinolone class of antibiotics norfloxacin (Noroxin® (Merck & Co., Inc.)) and levofloxacin (Levaquin® (Ortho-McNeil)) also were evaluated. In preliminary experiments, norfloxacin was tested against Enterococcus faecalis and Pseudomonas aeruginosa.

Bacteriodes vulgatus = test: Short exposure of test microorganism to antibiotic; format: cell-based
Protocol: as §1
Anaerobes are the predominant microorganisms in the colon. […] Lincomycin (Lincocin hydrochloride) (Sigma-Aldrich Co.) and Primaxin® were then tested against this anaerobe.

| SMILES | inhibition (in words) (Enterococcus faecalis) | reduction of the anaerobe (Bacteriodes vulgatus; extended conditions: 40 minutes at 37° C., 4° C. for 60 minutes, additional 60 minutes at 37° C.) | reduction of the anaerobe (Bacteriodes vulgatus; overnight at 4° C., Primaxin 100 μg/mL, lincomycin up to 150 μg/mL) |
| --- | --- | --- | --- |
| C[C@H]1COc2c(N3CCN(C)CC3)c(F)cc3c(=O)c(C(=O)O)cn1c23 [levofloxacin] | minor but reproducible inhibition |  |  |
| C[C@@H](O)[C@H]1C(=O)N2C(C(=O)O)=C(SCCN=CN)C[C@H]12 [Primaxin®, imipenem] |  | two log reduction | one log reduction |
